Laboratory results: PubChem BioAssay AID1508597 (Cure First, 2020)
Shown is an unselected part of the about 2,100 reagents, in one setting of the screen. 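Calls flag viability under 80% in either arm, not effects specific to rucaparib; the reference for percent is not stated.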 Some reagents were tested in more than one well and are listed for each. Reagent sequences are not shown. Not given: the 100% reference.

Test: 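Knock-downs altering ovarian cancer cell survival with or without PARP inhibitor rucaparib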 (primary screen)
System: human ovarian carcinoma lines grown from tumours: OCI-P5x (papillary serous) and OCI-C5x (clear cell)
Reagent: siRNA pool against human genes, 1.25 pmol siRNA per well
Timing: 72 h or 96 h, depending on the cell culture
Challenge: rucaparib 20 µM (about IC30) or vehicle, present until read-out
Rucaparib or vehicle: Rucaparib
Cell line: OCI-C5x (clear cell)
Measured: 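ATP luminescence measured at 72 or 96 h according to the culture, then normalised and expressed as percent viability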
Scale: viability, normalised: higher = more viable cells remaining
Rule for the call: 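Active when normalised viability falls below 80 percent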
Calls: active = viability under 80%; inactive = viability 80% or more

ENOSF1, technical replicate 1 — viability, normalised (%) = 89.4; outcome = inactive
ENOSF1, technical replicate 2 — viability, normalised (%) = 75.3; outcome = active
ENOSF1, technical replicate 3 — viability, normalised (%) = 97.8; outcome = inactive
BRSK2, technical replicate 1 — viability, normalised (%) = 42.8; outcome = active
BRSK2, technical replicate 2 — viability, normalised (%) = 70.9; outcome = active
BRSK2, technical replicate 3 — viability, normalised (%) = 48.9; outcome = active
CAMKK1, technical replicate 1 — viability, normalised (%) = 52.2; outcome = active
CAMKK1, technical replicate 2 — viability, normalised (%) = 58.3; outcome = active
CAMKK1, technical replicate 3 — viability, normalised (%) = 38.9; outcome = active
ASH2L, technical replicate 1 — viability, normalised (%) = 52.3; outcome = active
ASH2L, technical replicate 2 — viability, normalised (%) = 56.2; outcome = active
ASH2L, technical replicate 3 — viability, normalised (%) = 61.4; outcome = active
CABIN1, technical replicate 1 — viability, normalised (%) = 56.5; outcome = active
CABIN1, technical replicate 2 — viability, normalised (%) = 30.9; outcome = active
CABIN1, technical replicate 3 — viability, normalised (%) = 36.7; outcome = active
MYBL2, technical replicate 1 — viability, normalised (%) = 51.6; outcome = active
MYBL2, technical replicate 2 — viability, normalised (%) = 42.7; outcome = active
MYBL2, technical replicate 3 — viability, normalised (%) = 39.9; outcome = active

The list goes on, starting with the last 2 of the part before.
MYBL2, technical replicate 2 — viability, normalised (%) = 42.7; outcome = active
MYBL2, technical replicate 3 — viability, normalised (%) = 39.9; outcome = active
PKD2L1, technical replicate 1 — viability, normalised (%) = 62.7; outcome = active
PKD2L1, technical replicate 2 — viability, normalised (%) = 54.8; outcome = active
PKD2L1, technical replicate 3 — viability, normalised (%) = 35.7; outcome = active
HSPB8, technical replicate 1 — viability, normalised (%) = 58.5; outcome = active
HSPB8, technical replicate 2 — viability, normalised (%) = 70.2; outcome = active
HSPB8, technical replicate 3 — viability, normalised (%) = 44.8; outcome = active
RIPK2, technical replicate 1 — viability, normalised (%) = 50.2; outcome = active
RIPK2, technical replicate 2 — viability, normalised (%) = 38.9; outcome = active
RIPK2, technical replicate 3 — viability, normalised (%) = 40; outcome = active
RPS6KB2, technical replicate 1 — viability, normalised (%) = 71; outcome = active
RPS6KB2, technical replicate 2 — viability, normalised (%) = 55.6; outcome = active
RPS6KB2, technical replicate 3 — viability, normalised (%) = 59.9; outcome = active
ILK, technical replicate 1 — viability, normalised (%) = 99.7; outcome = inactive
ILK, technical replicate 2 — viability, normalised (%) = 111; outcome = inactive
ILK, technical replicate 3 — viability, normalised (%) = 109; outcome = inactive
CHAF1B, technical replicate 1 — viability, normalised (%) = 36.8; outcome = active
CHAF1B, technical replicate 1 — viability, normalised (%) = 70.3; outcome = active
CHAF1B, technical replicate 2 — viability, normalised (%) = 32.7; outcome = active
CHAF1B, technical replicate 2 — viability, normalised (%) = 63; outcome = active
CHAF1B, technical replicate 3 — viability, normalised (%) = 35.7; outcome = active
CHAF1B, technical replicate 3 — viability, normalised (%) = 54.7; outcome = active
SMARCD3, technical replicate 1 — viability, normalised (%) = 36.5; outcome = active
SMARCD3, technical replicate 2 — viability, normalised (%) = 32; outcome = active
SMARCD3, technical replicate 3 — viability, normalised (%) = 26.1; outcome = active
